Results on 17 compounds are retold here after PubChem BioAssay AID330 (DTP/NCI, 2004).

The assay deals with P388 leukemia ip, CD2F1 mice, survival T/C. As to the kind of experiment: NCI In Vivo Anticancer Drug Screen. Data for tumor model P388 Leukemia (intraperitoneal) in CD2F1 (CDF1) mice. The settings on record: T/C endpoint: median survival time, higher T/C = longer survival.
Where [1] appears, read: dose: 50.0 mg/kg/injection, schedule: Q01DX009 (ip), vehicle: distilled water + Tween-80.
Setting [2] is: dose: 100.0 mg/kg/injection, schedule: Q01DX009 (ip), vehicle: distilled water + Tween-80.
The mark [3] stands for this setting: dose: 10.0 mg/kg/injection, schedule: Q01DX009 (ip), vehicle: other.
Where [4] appears, read: dose: 20.0 mg/kg/injection, schedule: Q01DX009 (ip), vehicle: other.
Setting [5] is: dose: 200.0 mg/kg/injection, schedule: Q01DX005 (ip), vehicle: saline with Tween-80.
The mark [6] stands for this setting: dose: 240.0 mg/kg/injection, schedule: Q01DX005 (ip), vehicle: saline.
Where [7] appears, read: dose: 50.0 mg/kg/injection, schedule: Q01DX009 (ip), vehicle: saline with Tween-80.
Where [8] appears, read: dose: 100.0 mg/kg/injection, schedule: Q01DX009 (ip), vehicle: saline with Tween-80.
The mark [9] stands for this setting: dose: 200.0 mg/kg/injection, schedule: Q01DX009 (ip), vehicle: saline with Tween-80.

Structures are written as SMILES. The list is a part of this screen's results and no random one: it is rich in T/C values a quarter to a half above the control, in often repeated tests (any T/C) and in doses without a T/C. Further doses and runs are listed elsewhere. T/C is the treated group as % of the vehicle group. Some doses have a count of surviving animals in place of a T/C: the source holds a T/C of zero for them, seemingly a mark for toxic or unscored doses. Some doses without a T/C left all or most animals alive at the check, yet need not have been tolerated: the source hardly ever lists a survival T/C far under the control, and the zero likely stands for such cases as well. Counts of survivors are from the toxicity check (mostly the fifth day) where no day follows; animals may have died later. Schedules are NCI's codes, read here as Q, the interval in days (D) or hours (H), X, the number of doses. Some schedule codes hold Z or #, which are not explained here. Where survival is the endpoint, the PubChem record calls one and a half times the control and up active, and a quarter to a half above the control has no call in these data; cut-offs in other NCI protocols can differ. Some T/C values are followed by the survivors on the day toxicity was checked, most often the fifth; without a count, all were alive then. Some doses were run more than once; the results are listed from low to high. Brackets with × say how often a value occurs here.

Take `CC1(O)C=CC(=O)C=C1`: the T/C is, setting by setting: (dose: 25.0 mg/kg/injection, schedule: Q01DX009 (ip), vehicle: distilled water + Tween-80) 127 % of control; under setting [1], 136 % of control [5 of 6 alive]. In addition, the survivor count under setting [2] is recorded as 0 of 6.

For the compound `c1ccc2c(NCCCCCCCCNc3c4ccccc4nc4ccccc34)c3ccccc3nc2c1`, the T/C reads like this: (dose: 0.63 mg/kg/injection, schedule: Q01DX009 (ip), vehicle: other) 136 % of control; (dose: 1.25 mg/kg/injection, schedule: Q01DX009 (ip), vehicle: other) 129 (2×), 133, 136, 141 % of control; (dose: 1.25 mg/kg/injection, schedule: Q## X009 (ip), vehicle: lactic acid) 138 % of control; (dose: 2.5 mg/kg/injection, schedule: Q01DX009 (ip), vehicle: other) 123, 128, 140, 148, 155 % of control; (dose: 2.5 mg/kg/injection, schedule: Q01DX009 (ip), vehicle: saline) 135 % of control; (dose: 3.75 mg/kg/injection, schedule: Q01DX009 (ip), vehicle: other) 140 % of control. For the same compound, the T/C is 134, 139, 140, 145, 164 % of control (dose: 5.0 mg/kg/injection, schedule: Q01DX009 (ip), vehicle: other); 137 % of control (dose: 5.0 mg/kg/injection, schedule: Q01DX009 (ip), vehicle: saline); 147 % of control (dose: 5.0 mg/kg/injection, schedule: Q## X009 (ip), vehicle: lactic acid); 140 % of control (dose: 7.5 mg/kg/injection, schedule: Q01DX009 (ip), vehicle: other); 101, 140, 150, 152 % of control under setting [3]; 126 % of control (dose: 10.0 mg/kg/injection, schedule: Q04DX003 (ip), vehicle: Klucel (hydroxypropylcellulose) (HPC)). In addition, the T/C reads like this: under setting [4], 149 [4 of 6 alive] and 151 % of control; (dose: 20.0 mg/kg/injection, schedule: Q01DX009 (ip), vehicle: saline) 141 % of control; (dose: 20.0 mg/kg/injection, schedule: Q04DX003 (ip), vehicle: Klucel (hydroxypropylcellulose) (HPC)) 129 % of control; (dose: 40.0 mg/kg/injection, schedule: Q04DX003 (ip), vehicle: Klucel (hydroxypropylcellulose) (HPC)) 133 % of control. Further, the survivor count under setting [3] is recorded as 6 of 6; the survivor count (dose: 10.0 mg/kg/injection, schedule: Q## X009 (ip), vehicle: lactic acid) is 4 of 6; the survivor count (dose: 15.0 mg/kg/injection, schedule: Q01DX009 (ip), vehicle: other) is 2 of 6; the survivor count under setting [4] is listed as 1 of 6; the survivor count (dose: 20.0 mg/kg/injection, schedule: Q## X009 (ip), vehicle: lactic acid) is on record as 0 of 6; the survivor count (dose: 160.0 mg/kg/injection, schedule: Q04DX003 (ip), vehicle: Klucel (hydroxypropylcellulose) (HPC)) is given as 4 of 6.

`CCOC(=O)c1ccc(N=C=S)cc1`: the survivor count was 4 of 6 under setting [1]; 3 of 6 under setting [2]; 0 of 6 (dose: 200.0 mg/kg/injection, schedule: Q01DX009 (ip), vehicle: distilled water + Tween-80); 0 of 6 (dose: 400.0 mg/kg/injection, schedule: Q01DX009 (ip), vehicle: distilled water + Tween-80).

Take `OC(COc1c2ccccc2nc2ccccc12)CN1CCN(c2ccccc2)CC1` (centres undefined): the survivor count under setting [5] was 6 of 6.

With `CN(C)CCC(=O)c1ccc2c(c1)OCO2`, the survivor count under setting [6] is 0 of 6.

Take `Cc1ccc(S(=O)(=O)N=N/C=C2/C=CC=CN2O)cc1`: the T/C is 127 % of control (dose: 50.0 mg/kg/injection, schedule: Q01DX009 (ip), vehicle: Klucel (hydroxypropylcellulose) (HPC)); 131 and 148 % of control (dose: 100.0 mg/kg/injection, schedule: Q01DX009 (ip), vehicle: Klucel (hydroxypropylcellulose) (HPC)). The survivor count (dose: 200.0 mg/kg/injection, schedule: Q01DX009 (ip), vehicle: Klucel (hydroxypropylcellulose) (HPC)) is 3 of 6.

Take `CCc1c(-c2ccc(Cl)cc2)nc(N)nc1-c1nc(N)nc(-c2ccc(Cl)cc2)c1CC`: the survivor count under setting [6] is given as 3 of 6.

Regarding `CCC(=O)Oc1ccc[nH]c1=O`, the T/C (dose: 200.0 mg/kg/injection, schedule: Q01DX009 (ip), vehicle: saline) is 103, 111, 115 [5 of 6 alive], 119 % of control; the T/C (dose: 300.0 mg/kg/injection, schedule: Q01DX009 (ip), vehicle: Klucel (hydroxypropylcellulose) (HPC)) is 125 and 128 % of control; the T/C (dose: 400.0 mg/kg/injection, schedule: Q01DX009 (ip), vehicle: Klucel (hydroxypropylcellulose) (HPC)) was 134 % of control; the T/C (dose: 400.0 mg/kg/injection, schedule: Q01DX009 (ip), vehicle: saline with Tween-80) is 133 % of control; the T/C (dose: 400.0 mg/kg/injection, schedule: Q01DX009 (ip), vehicle: saline) is 118, 119, 122 [5 of 6 alive], 143 % of control; the T/C (dose: 500.0 mg/kg/injection, schedule: Q01DX009 (ip), vehicle: Klucel (hydroxypropylcellulose) (HPC)) is 136 % of control. Further, the T/C by setting is: (dose: 500.0 mg/kg/injection, schedule: Q01DX009 (ip), vehicle: saline) 134 and 136 % of control; (dose: 600.0 mg/kg/injection, schedule: Q01DX009 (ip), vehicle: Klucel (hydroxypropylcellulose) (HPC)) 136 and 142 % of control; (dose: 600.0 mg/kg/injection, schedule: Q01DX009 (ip), vehicle: saline with Tween-80) 136 % of control; (dose: 600.0 mg/kg/injection, schedule: Q01DX009 (ip), vehicle: saline) 134 % of control.

`CCCCCCCCCCSCC(N)CO` (centres undefined): the survivor count reads like this: under setting [7], 6 of 6; under setting [8], 0 of 6; under setting [9], 0 of 6.

`CCC[As](CCC)SCC1OC(OC(C)=O)C(OC(C)=O)C(OC(C)=O)C1OC(C)=O` (centres undefined): the survivor count under setting [9] is 6 of 6.

As for `CN(C)C1=NC(NCCc2ccccc2)(N(C)C)OC(N(C)C)=N1` (centres undefined), the survivor count (dose: 200.0 mg/kg/injection, schedule: Q01DX005 (ip), vehicle: saline) was 0 of 6.

For `O=C1C(Cl)=C(Cl)C(=O)C2CC=CCC12` (centres undefined), the survivor count is 1 of 6 (dose: 25.0 mg/kg/injection, schedule: Q01DX001 (ip), vehicle: saline with Tween-80); 0 of 6 (dose: 50.0 mg/kg/injection, schedule: Q01DX001 (ip), vehicle: saline with Tween-80); 0 of 6 (dose: 100.0 mg/kg/injection, schedule: Q01DX001 (ip), vehicle: saline with Tween-80); 0 of 6 (dose: 200.0 mg/kg/injection, schedule: Q01DX001 (ip), vehicle: saline with Tween-80); 0 of 6 (dose: 400.0 mg/kg/injection, schedule: Q01DX001 (ip), vehicle: saline with Tween-80).

On to `c1cc[n+](Cc2c3ccccc3cc3c2ccc2ccccc23)cc1`, for which the survivor count by setting is: (dose: 50.0 mg/kg/injection, schedule: Q01DX005 (ip), vehicle: Klucel (hydroxypropylcellulose) (HPC)) 4 of 5; (dose: 100.0 mg/kg/injection, schedule: Q01DX005 (ip), vehicle: Klucel (hydroxypropylcellulose) (HPC)) 0 of 5; (dose: 200.0 mg/kg/injection, schedule: Q01DX005 (ip), vehicle: Klucel (hydroxypropylcellulose) (HPC)) 0 of 5.

Turning to `CC(CN(C)C)C(/C=C/c1ccc(Cl)cc1)=N\NC(=O)c1ccccc1` (centres undefined), under setting [6], the survivor count is recorded as 0 of 6.

Take `CCOC(=O)C[n+]1cc2ccccc2cc1C`: under setting [5], the survivor count is 3 of 5.

Regarding `O=C(Nc1ccc([N+](=O)[O-])cc1)N1CCOCC1`, under setting [8], the survivor count is listed as 6 of 6.

On to `NNc1nc2ccccc2s1`, for which the survivor count under setting [7] is recorded as 3 of 6, the survivor count under setting [8] is on record as 0 of 6 and the survivor count under setting [9] was 0 of 6.
